{"source": "the supplement of paper PMC8104966", "note": "The other results are listed elsewhere or left out. Repeats in this data set agree poorly, so a single value says little.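 U2OS cells expressing ACE2 were combined with U2OS cells expressing full-length spike, and imaging quantified fusion as the fraction of nuclei displaying both cell types' fluorescent markers. Non-toxic compounds with a fusion z-score under -3, i.e., over three standard deviations below the plate's DMSO wells, are called inhibitory hits.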", "data": [{"tested_on": "U2OS ACE2 x SARS-CoV-2 spike co-culture", "test": "cell-cell fusion (fraction fused) z-score vs plate DMSO control; higher = more fusion", "details": "30 µM; 5 h; toxicity class: non-toxic, passed QC", "values": [{"smiles": "CN1CCN(c2nc3cc(C(F)(F)F)ccc3n3cccc23)CC1.O=C(O)/C=C\\C(=O)O", "cell-cell fusion (z-score)": "inactive: 3.1"}, {"smiles": "CO[C@H]1/C=C/O[C@@]2(C)Oc3c(C)c(O)c4c(O)c(c(C=NN5CCN(C)CC5)c(O)c4c3C2=O)NC(=O)/C(C)=C\\C=C\\C(C)[C@H](O)[C@@H](C)[C@@H](O)[C@@H](C)[C@@H](OC(C)=O)[C@@H]1C", "note": "(stereo partly specified)", "cell-cell fusion (z-score)": "inactive: 3.88"}, {"smiles": "O=C(O[C@@H]1Cc2c(O)cc(O)cc2O[C@@H]1c1cc(O)c(=O)c2c(O)c(O)cc([C@H]3Oc4cc(O)cc(O)c4C[C@H]3OC(=O)c3cc(O)c(O)c(O)c3)c2c1)c1cc(O)c(O)c(O)c1", "cell-cell fusion (z-score)": "inactive: 1.57"}, {"smiles": "CCC(C)(C)O", "cell-cell fusion (z-score)": "inactive: 0.722"}, {"smiles": "C#CCN[C@@H]1CCc2ccccc21.CS(=O)(=O)O", "note": "[Rasagiline Mesylate]", "cell-cell fusion (z-score)": "inactive: 1.24"}, {"smiles": "CC(C)=O.COC(=O)N[C@H](C(=O)N1CC2(CC2)C[C@H]1c1ncc(-c2ccc3c(c2)C(F)(F)c2cc(-c4ccc5nc([C@@H]6[C@H]7CC[C@H](C7)N6C(=O)[C@@H](NC(=O)OC)C(C)C)[nH]c5c4)ccc2-3)[nH]1)C(C)C", "note": "[Ledipasvir acetone]", "cell-cell fusion (z-score)": "inactive: 1.08"}, {"smiles": "[Na+].[Na+].[O-]c1c(Cl)cc(Cl)cc1Sc1cc(Cl)cc(Cl)c1[O-]", "cell-cell fusion (z-score)": "inactive: -0.229"}, {"smiles": "O=C1NC(=O)/C(=C/c2ccc3nccc(-c4ccncc4)c3c2)S1", "cell-cell fusion (z-score)": "inactive: -0.0606"}, {"smiles": "C[C@H]1C[C@H]2[C@@H]3CCC4=CC(=O)C=C[C@]4(C)[C@H]3C(=O)C[C@]2(C)[C@@]1(O)C(=O)CO", "note": "[Meprednisone]", "cell-cell fusion (z-score)": "inactive: 2.47"}, {"smiles": "CC(C)[N+](C)(CCC(C(N)=O)(c1ccccc1)c1ccccc1)C(C)C.[I-]", "note": "[Isopropamide Iodide]", "cell-cell fusion (z-score)": "inactive: 0.637"}, {"smiles": "CC(C)(C)c1cc(/C=C(\\C#N)C(N)=S)cc(C(C)(C)C)c1O", "note": "[Tyrphostin AG 879]", "cell-cell fusion (z-score)": "inactive: 0.469"}, {"smiles": "Cc1onc(-c2ccccc2)c1C(=O)NC1C(=O)N2[C@@H]1SC(C)(C)[C@@H]2C(=O)[O-].[Na+]", "note": "(stereo partly specified)", "cell-cell fusion (z-score)": "inactive: 0.651"}, {"smiles": "COc1ccc(C(=O)CCC(=O)O)c2ccccc12", "cell-cell fusion (z-score)": "inactive: 1.89"}, {"smiles": "Cc1ccc(-c2cc(C(F)(F)F)nn2-c2ccc(S(N)(=O)=O)cc2)cc1", "note": "[Celecoxib]", "cell-cell fusion (z-score)": "inactive: 0.693"}, {"smiles": "CCCCOc1ccc(CC(=O)NO)cc1", "cell-cell fusion (z-score)": "inactive: -1.36"}, {"smiles": "CCCCC(O)c1ccccc1", "note": "(stereo unspecified)", "cell-cell fusion (z-score)": "inactive: 3.35"}, {"smiles": "COc1c(N2CCNC(C)C2)c(F)cc2c(=O)c(C(=O)O)cn(C3CC3)c12.NCCO", "note": "(stereo unspecified)", "cell-cell fusion (z-score)": "inactive: 2.47"}, {"smiles": "O=C(NC(Cc1cc(=O)[nH]c2ccccc12)C(=O)O)c1ccc(Cl)cc1", "note": "(stereo unspecified)", "cell-cell fusion (z-score)": "inactive: 2.52"}, {"smiles": "S=c1nc[nH]c2nc[nH]c12", "note": "[Mercaptopurine]", "cell-cell fusion (z-score)": "inactive: 2.85"}, {"smiles": "Cc1cnc(C(=O)O)c[n+]1[O-]", "cell-cell fusion (z-score)": "inactive: 1.04"}, {"smiles": "CC(C)=CCOc1c2occc2cc2ccc(=O)oc12", "note": "[Imperatorin]", "cell-cell fusion (z-score)": "inactive: 2.07"}, {"smiles": "O.O.O.[Cl-].CN(C)c1ccc2nc3cc\\c(cc3sc2c1)=[N+](/C)C", "note": "[Methylene Blue trihydrate]", "cell-cell fusion (z-score)": "inactive: -2.61"}, {"smiles": "COc1cc(O)c(C(C)=O)c(OC)c1", "cell-cell fusion (z-score)": "inactive: 1.89"}, {"smiles": "Cc1cc2c(s1)Nc1ccccc1N=C2N1CCN(C)CC1", "note": "[Olanzapine]", "cell-cell fusion (z-score)": "inactive: 3.08"}, {"smiles": "Nn1nnc2ccccc21", "note": "[1-Aminobenzotriazole]", "cell-cell fusion (z-score)": "inactive: 1.69"}, {"smiles": "CCN(C)C(=O)Oc1cccc([C@H](C)N(C)C)c1.O=C(O)[C@H](O)[C@@H](O)C(=O)O", "cell-cell fusion (z-score)": "inactive: -2.12"}, {"smiles": "OCC(Br)(Br)Br", "cell-cell fusion (z-score)": "inactive: 3.46"}, {"smiles": "COc1ccccc1N1CCN(CCN2C(=O)CC3(CCCC3)CC2=O)CC1.Cl.Cl", "note": "[BMY 7378 dihydrochloride]", "cell-cell fusion (z-score)": "inactive: 2.48"}, {"smiles": "O=C(O)Cn1c(C(=O)Nc2nc(-c3ccccc3Cl)cs2)cc2ccccc21", "cell-cell fusion (z-score)": "inactive: 2.92"}, {"smiles": "O=C1NC(=O)C(=O)C(=O)N1", "cell-cell fusion (z-score)": "inactive: 1.76"}, {"smiles": "CCCC[C@@H](CC)COC(=O)C(C#N)=C(c1ccccc1)c1ccccc1", "cell-cell fusion (z-score)": "inactive: 0.896"}, {"smiles": "CCc1ccc2c(-c3cccc(Cl)c3)nc(=O)n(CC)c2n1", "cell-cell fusion (z-score)": "inactive: 1.67"}, {"smiles": "COc1cc2c(cc1Cc1cccc(Cl)c1F)c(=O)c(C(=O)O)cn2[C@H](CO)C(C)C", "note": "[Elvitegravir]", "cell-cell fusion (z-score)": "active: -4.55"}, {"smiles": "Cc1cc(NC2CCCCC2)nc(-n2nc(C)cc2C)n1", "cell-cell fusion (z-score)": "inactive: 2.03"}, {"smiles": "COc1ccc(CC(C)(C)NC[C@H](O)c2cc(O)cc3c2OCC(=O)N3)cc1", "note": "[Olodaterol]", "cell-cell fusion (z-score)": "inactive: 1.02"}, {"smiles": "O=C(/C=C/c1cccc(S(=O)(=O)Nc2ccccc2)c1)NO", "note": "[Belinostat]", "cell-cell fusion (z-score)": "inactive: 1.12"}, {"smiles": "O=C(O[C@@H]1Cc2c(O)cc(O)cc2O[C@@H]1c1cc(O)c(O)c(O)c1)c1cc(O)c(O)c(O)c1", "cell-cell fusion (z-score)": "inactive: 2.82"}, {"smiles": "CN1CCN(C2=Nc3ccccc3Oc3ccc(Cl)cc32)CC1.O=C(O)CCC(=O)O", "note": "[Loxapine succinate]", "cell-cell fusion (z-score)": "inactive: 1.71"}, {"smiles": "CN1CCN(C2=Nc3ccccc3Oc3ccc(Cl)cc32)CC1.O=C(O)CCC(=O)O", "cell-cell fusion (z-score)": "inactive: 2.1"}, {"smiles": "Oc1ccc(/C=C/c2cc(O)cc(O)c2)cc1", "cell-cell fusion (z-score)": "inactive: 2.25"}, {"smiles": "Oc1ccc(/C=C/c2cc(O)cc(O)c2)cc1", "note": "[Resveratrol]", "cell-cell fusion (z-score)": "inactive: 2.03"}]}]}
